# Results published in PubChem BioAssay AID493014 (National Center for Advancing Translational Sciences (NCATS), 2011).
# Values joined by “and” are separate entries in the source; they are usually repeats but may differ in a detail not shown here. Equal values may be shown once. The list shows a part of the results. Shown are side measurements of this screen, not its main read-out; they come without a call. The list favours compounds with an active or inconclusive main result. Words in brackets tell the shape of the fitted curve; partial curves, single points and poor fits give uncertain potencies.
# Assay: qHTS Assay to Find Inhibitors of Chronic Active B-Cell Receptor Signaling
# Conditions: ABC-DLBCL IkBa-CBG/CBR reporter, luminescence ratio (green luciferase fused to IkBa over red control in TMD8 lymphoma cells), 4 h
# In short: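 Compounds up to 46 uM were incubated four hours with TMD8 cells whose green CBG68 luciferase is fused to IkappaBalpha; red CBR luminescence normalised the signal, and concentration-effect curves were fitted to fusion, red and ratio data.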
# [1] = measured here: CBR red luminescence, cell number
# [2] = measured here: IkBa-CBG green luminescence
Compound,AC50 [1],AC50 [2]
COc1ccccc1NC(=O)OCC#CCOC(=O)Nc1ccccc1OC,"25.1 µM [falling, single point]",
Cc1cccc(CCNC(=O)c2cnc3c(C)cccn3c2=O)c1,"35.5 µM [falling, single point]",
COc1cc(SC)ccc1C(=O)Nc1ccccc1,"13 µM [falling, partial curve]",
Cc1ccccc1-n1c(C)cc(/C=N/Nc2ccc([N+](=O)[O-])cn2)c1C,"2.91 µM [falling, single point]",
O=C(NCCCn1ccnc1)/C(=C/c1cccs1)NC(=O)c1ccco1,"0.708 µM [rising, full curve, poor fit]",
O=C(C1=C[C@@H](C2CCCCC2)C[C@@H](OCc2ccc(CO)cc2)O1)N1CCOCC1,"35.5 µM [rising, single point]",
COC(=O)CN1C(c2ccc(OC)cc2)=Nc2ccc(Cl)cc2C1c1ccccc1 (stereo not given),"20.6 µM [falling, single point]",
Cc1[nH]n(-c2ccccc2)c(=O)c1/C=N/NC(=O)c1ccoc1C,"5.8 µM [falling, full curve, poor fit]",
O=C(COc1cc2oc(=O)c3c(c2cc1Cl)CCC3)NCCCn1ccnc1,"2.51 µM [rising, partial curve, poor fit]",
CCNC(=S)NNC(=O)c1cc(-c2cccc(C)c2)nc2ccccc12,,"35.5 µM [rising, partial curve, poor fit]"
COc1cc2c(cc1NC(=O)COC(=O)/C=C/c1ccc([N+](=O)[O-])cc1)oc1ccccc12,"3.16 µM [falling, single point]",
CSc1nc(Cc2ccccc2)nc2ccccc12,"35.5 µM [rising, single point]",
O=C(c1ccc(Cl)cc1)N1CCN(c2ccnc3cc(Cl)ccc23)CC1,"35.5 µM [falling, partial curve, poor fit]",
O=C(O)CCSc1nnc(COc2cccc3ccccc23)n1-c1cccc(Cl)c1,"11.2 µM [falling, partial curve, poor fit]",
OC(c1cc(C(F)(F)F)nc2c(Cl)cc(Cl)cc12)C1CCCCN1 (stereo not given),"5.01 µM [falling, partial curve]",
O=C(NCc1ccco1)c1c(F)c(F)c(F)c(C(=O)NCc2ccco2)c1F,"12.6 µM [falling, single point]",
Cn1c(=O)c2c(nc(NN=C3CCCCC3)n2C)n(C)c1=O,"8.91 µM [falling, partial curve, poor fit]",
Cc1ccc(NCc2nnc(SCC(=O)N(Cc3ccccc3)C(C)(C)C)o2)c(C)c1,"20.6 µM [falling, partial curve, poor fit]",
CCOC(=O)C1CCN(Cc2cc(=O)oc3c(C)c(C)ccc23)CC1,"11.2 µM [falling, partial curve, poor fit]",
COc1ccc(C(=O)Nc2nc3ccc4nc(C)sc4c3s2)cc1,"0.206 µM [falling, full curve, poor fit]",
CCC(C(=O)O/N=C(\N)c1ccc(C)cc1)c1ccccc1 (stereo not given),"0.461 µM [rising, full curve, poor fit]",
Cc1ccc(C(=O)NN=C2CCCCCC2)s1,"8.91 µM [falling, partial curve, poor fit]",

# Ordered by count of non-hydrogen atoms (falling): part of the list above.
Compound,AC50 [1],AC50 [2]
CCNC(=S)NNC(=O)c1cc(-c2cccc(C)c2)nc2ccccc12,,"35.5 µM [rising, partial curve, poor fit]"
OC(c1cc(C(F)(F)F)nc2c(Cl)cc(Cl)cc12)C1CCCCN1 (stereo not given),"5.01 µM [falling, partial curve]",
CSc1nc(Cc2ccccc2)nc2ccccc12,"35.5 µM [rising, single point]",

# (listing goes on)

Compound,AC50 [1],AC50 [2]
O=C(O)CC/C(=N\NC(=O)c1ccc(F)cc1)c1ccc(Br)cc1,"15.8 µM [falling, partial curve, poor fit]",
COc1ccc(/C=N/NC(=O)c2ccco2)cc1OCc1ccccc1,"5.01 µM [falling, partial curve, poor fit]",
COc1cccc(-c2nnc(-c3ccc(C)o3)o2)c1,"2.06 µM [falling, single point]",
CN(C)c1ccc(N=Cc2ccco2)cc1,"3.16 µM [falling, full curve, poor fit]",
CC1CCCc2sc3nc(NCc4ccco4)n4ncnc4c3c21 (stereo not given),"29.1 µM [rising, single point]",
Cc1cccc(C(=O)Nc2ccccc2NC(=O)c2cccc(C)c2)c1,"12.6 µM [falling, partial curve, poor fit]",
CC(=O)c1ccc(S(=O)(=O)N2CCNC(=O)C2)cc1,"0.092 µM [rising, full curve, poor fit]",
CCCCCCCN1C2=NCCCN2c2ccccc21,"14.1 µM [falling, single point]",
Nc1cc(=O)[nH]c(SCC(=O)Nc2ccc(Br)cc2)n1,"29.1 µM [falling, single point]",
CC(=O)Nc1ccc(/C(C)=N/NC(=O)c2ccccc2Cl)cc1,"20.6 µM [falling, partial curve, poor fit]",
Cc1ccc(C(=O)OCC(=O)NCc2ccco2)s1,"22.4 µM [falling, single point]",
CC(=O)Nc1cc(O)cc(O)c1,"35.5 µM [rising, single point]",
CN1CCN(C(=O)CCCN2C(=O)/C(=C/c3ccccc3)SC2=S)CC1,"12.6 µM [falling, partial curve]",
Fc1ccc(-n2ncc3c(N4CCC(Cc5ccccc5)CC4)ncnc32)cc1,"2 µM [falling, partial curve, poor fit]",
CC(=O)c1ccc(N2C(=O)N(Cc3ccccc3C#N)c3ccccc3S2(=O)=O)cc1,"39.8 µM [falling, partial curve, poor fit]",
CC1C(=O)Nc2ccc(S(=O)(=O)N3CCN(c4cccc(Cl)c4)CC3)cc2NC1=O (stereo not given),"35.5 µM [falling, single point]",
CCOc1cccc2cc(-c3cn4cc(C)ccc4n3)c(=O)oc12,"1.41 µM [falling, full curve]",
Cc1cc(S(=O)(=O)N2CCN(c3c(C)cccc3C)CC2)ccc1F,"29.1 µM [rising, partial curve, poor fit]",
O=c1oc2cc(O)ccc2c2oc3cc(O)ccc3c12,,"6.51 µM [rising, partial curve]"
CCOc1ccccc1NC(=S)N1CCN(c2nc(-c3ccc(F)cc3)cs2)CC1,"35.5 µM [falling, partial curve, poor fit]",
c1ccc(-n2ncc3c(NCC4CCCO4)ncnc32)cc1 (stereo not given),"11.2 µM [falling, partial curve]",
Cc1ccc(-c2nc(CN3CCCCC3)cc(CN3CCCCC3)c2O)cc1,"15.8 µM [falling, partial curve]",

Compound,AC50 [1],AC50 [2]
COc1ccc(Cn2nc(-c3ccccc3)c(N3CCCCC3)cc2=O)cc1,"5.62 µM [rising, partial curve, poor fit]",
Cc1cccc(CS(=O)(=O)Cc2ccc(C(=O)NCc3cccnc3)o2)c1,"0.103 µM [falling, full curve, poor fit]",
COc1cccc(CC2CC(=O)N(CCc3ccc4c(c3)OCO4)C2=O)c1 (stereo not given),"32.6 µM [falling, single point]",
COc1ccccc1N/N=C1\COC(C)(C)CC1=O,"0.501 µM [rising, full curve]",
Cc1ccc(NC(=O)NCC2CC2(Cl)Cl)cc1 (stereo not given),"2.24 µM [rising, partial curve, poor fit]",
COc1ccc(-n2nnnc2CNC(=O)C(=O)c2c(C)[nH]c3ccccc23)cc1,"0.651 µM [falling, full curve, poor fit]",
COCc1c(C(=O)OCC(=O)c2c(N)n(CC(C)C)c(=O)n(C)c2=O)oc2ccccc12,"22.4 µM [falling, single point]",
COc1ccccc1-c1nc(SCc2ccccn2)n[nH]1,"0.708 µM [falling, full curve]",
COc1ccc(C)cc1NC(=O)CSc1nnc(COc2ccccc2)n1Cc1ccco1,"25.1 µM [falling, single point]",
Cc1ccc(O)c(CNc2cccc(C)n2)c1,"0.1 µM [rising, full curve, poor fit]",
O=C(c1cccc(Br)c1)c1coc2ccc(O)cc12,"6.51 µM [rising, single point]",
O=C(COC(=O)c1ccc(Cl)s1)c1ccc[nH]1,"0.282 µM [rising, full curve, poor fit]",
COC(=O)c1ccc(NC(=S)NNC(=O)CC(C)C)cc1,"7.31 µM [falling, partial curve]",
CCCC(=O)Nc1ccc(C(=O)n2ccc(C)n2)cc1,"12.6 µM [rising, partial curve, poor fit]",
CCOc1cc(N2CCOCC2)c(OCC)cc1NC(=O)CN1CCC(Cc2ccccc2)CC1,"0.82 µM [rising, full curve, poor fit]",
O=C(Nc1cccc(Cl)c1)c1cnn2cccnc12,"14.6 µM [falling, single point]",
Cc1oc(CC(C)C)cc1C(=O)Nc1cccc2ccccc12,"5.01 µM [falling, full curve, poor fit]",
CC1CCC(C(C)C)C(OC(=O)Cn2c(-c3ccc(Br)cc3)[n+](C)c3ccccc32)C1 (stereo not given),"22.4 µM [falling, single point] and 17.8 µM [falling, partial curve, poor fit]",
Cc1oc2c(c(C)cc3oc(=O)c(CC(=O)NCC(=O)NCC(=O)O)c(C)c32)c1C,"10 µM [rising, single point]",
CCN(CC)C(=O)CSc1nc2ccccc2n1CC(=O)N1CCN(c2ccccc2OC)CC1,"29.1 µM [rising, single point]",
O=C(Cn1nc2n(c1=O)-c1ccccc1SC2)N/N=C/c1ccncc1,"22.4 µM [rising, single point]",
